Common to all, as to assay: co-IP
Assay [1] addresses 3xFlag-Nsp1 (SARS-CoV-2 Nsp1) (SARS-CoV-2) (UniProt P0DTD1).
For assay [2] the target is unchanged. The source holds these as a separate data set.
Assay [3] addresses T1, NXF1, endogenous (mRNA export receptor) (human (endogenous in 293T)) (UniProt Q9UBU9).
T1 sequence: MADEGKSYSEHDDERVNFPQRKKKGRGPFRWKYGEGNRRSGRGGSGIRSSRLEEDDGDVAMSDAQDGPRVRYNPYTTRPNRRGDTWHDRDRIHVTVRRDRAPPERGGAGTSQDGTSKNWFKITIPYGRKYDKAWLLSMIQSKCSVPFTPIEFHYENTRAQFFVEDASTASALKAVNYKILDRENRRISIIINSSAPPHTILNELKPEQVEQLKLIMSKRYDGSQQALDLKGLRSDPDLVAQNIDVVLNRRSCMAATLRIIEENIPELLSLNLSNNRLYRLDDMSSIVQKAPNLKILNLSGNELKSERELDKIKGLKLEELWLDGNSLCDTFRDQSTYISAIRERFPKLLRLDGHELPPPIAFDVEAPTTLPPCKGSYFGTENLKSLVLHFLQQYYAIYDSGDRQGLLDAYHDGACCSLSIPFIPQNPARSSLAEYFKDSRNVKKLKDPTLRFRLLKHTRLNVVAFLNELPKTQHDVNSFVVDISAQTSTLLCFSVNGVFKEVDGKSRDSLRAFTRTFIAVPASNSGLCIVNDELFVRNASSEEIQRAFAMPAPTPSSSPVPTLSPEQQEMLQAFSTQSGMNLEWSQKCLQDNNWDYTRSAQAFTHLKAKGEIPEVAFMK

Among the data in PMC7864571 are binding values, retold here.

Read-outs that look alike come from different tables or passages of the source. No constants are given. Whether binding was seen depends on the method and setting. Binding seen in cells or lysates may run through a third protein. Some binding calls cover weakened binding; strength is not graded here.

In the case of “GANP (germinal center-associated nuclear protein), endogenous (from UniProt O60318 1-1980)”, the binding result in assay [1] is given as “no binding”. Same read-out and setting: then “mRNA export factor/RNA helicase UAP56 (DDX39B), endogenous (from UniProt Q13838 1-428)”, with “binds”.

B1: THOC3, endogenous (protein, UniProt Q96J01 1-351)
chain: MAVPAAAMGPSALGQSGPGSMAPWCSVSSGPSRYVLGMQELFRGHSKTREFLAHSAKVHSVAWSCDGRRLASGSFDKTASVFLLEKDRLVKENNYRGHGDSVDQLCWHPSNPDLFVTASGDKTIRIWDVRTTKCIATVNTKGENINICWSPDGQTIAVGNKDDVVTFIDAKTHRSKAEEQFKFEVNEISWNNDNNMFFLTNGNGCINILSYPELKPVQSINAHPSNCICIKFDPMGKYFATGSADALVSLWDVDELVCVRCFSRLDWPVRTLSFSHDGKMLASASEDHFIDIAEVETGDKLWEVQCESPTFTVAWHPKRPLLAFACDDKDGKYDSSREAGTVKLFGLPNDS
For B1, the binding result in assay [2] is listed as “no binding”.

B2: THOC6, endogenous (protein, UniProt Q86W42 1-341)
chain: MERAVPLAVPLGQTEVFQALQRLHMTIFSQSVSPCGKFLAAGNNYGQIAIFSLSSALSSEAKEESKKPVVTFQAHDGPVYSMVSTDRHLLSAGDGEVKAWLWAEMLKKGCKELWRRQPPYRTSLEVPEINALLLVPKENSLILAGGDCQLHTMDLETGTFTRVLRGHTDYIHCLALRERSPEVLSGGEDGAVRLWDLRTAKEVQTIEVYKHEECSRPHNGRWIGCLATDSDWMVCGGGPALTLWHLRSSTPTTIFPIRAPQKHVTFYQDLILSAGQGRCVNQWQLSGELKAQVPGSSPGLLSLSLNQQPAAPECKVLTAAGNSCRVDVFTNLGYRAFSLSF
Regarding B2, the binding entry in assay [3] is “binds”.
